According to patent US8586706B2, “Peptide vaccine using mimic molecules of amyloid β peptide” (Kagoshima University, priority 2007, dated 2013):

assay: Non-specific binding of blood sera of immunized mouse to 0.5% gelatin (ELISA background); assay type: in vivo, BALB/c mouse; details: serum of day 74 diluted 200-fold; mouse immunized hypodermically with streptavidin conjugate of biotinylated peptide / aluminum hydroxide gel

Substance	non-specific binding activity (absorbance at 405 nm; the subtracted OD value) of the blood sera to 0.5% gelatin
TAT-B7-S15: B7-S15 sequence having a TAT sequence fused at the amino terminus, SEQ ID NO: 27 (YGRKKRRQRRRSYGTKPWMSG; Designed peptide based on the DNA sequence of phage binding to human antiamyloid beta peptide antibody)	0.058
TAT-B6-L1: B6-L1 sequence having a TAT sequence fused at the amino terminus, SEQ ID NO: 24 (YGRKKRRQRRRGMLDIFAPIRHV; Designed peptide based on the DNA sequence of phage binding to human antiamyloid beta peptide antibody)	0.0255
TAT-B7-C15: B7-C15 sequence (glycine added to carboxyl terminus) having a TAT sequence fused at the amino terminus, SEQ ID NO: 26 (YGRKKRRQRRRCYGTKPWMCG; Designed peptide based on the DNA sequence of phage binding to human antiamyloid beta peptide antibody)	0.035
